{"source": "PubChem BioAssay AID2417", "about": "(National Center for Advancing Translational Sciences (NCATS), 2010)", "note": "Hit rate of the full screen: of about 140,000 compounds, about 4,300 (3.1%) were called active. This list was built around the results that the source calls inconclusive (neither active nor inactive); the mix of calls is not that of the screen.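 Rule for the calls: active = readout at or below -70, meaning at least 70% loss of cells showing the perinucleolar compartment, a nuclear body marking cancer cells; inconclusive = readout between -30 and a set limit; inactive = the rest.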", "data": [{"test": "High Content Assay for Compounds that inhibit the Assembly of the Perinucleolar Compartment;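 note: plate controls were DMSO wells for no effect and camptothecin positive control wells for full effect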", "conditions": "PC3M PTB-GFP, PNC prevalence imaging, 16 h; at 10 µM; active compounds read low", "outline": "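Compounds are pinned in duplicate onto adhered PC3M cells stably expressing GFP-tagged PTB and incubated 16 h at 37 C. Cells are then fixed, nuclei stained with Hoechst, and PNC-positive cells counted.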", "values": [{"smiles": "Cc1cc(N/N=C/c2ccc(O)cc2O)nc(-n2nc(C)cc2C)n1", "activity change (PNC), negative = inhibition": "inconclusive: -40.2%"}, {"smiles": "CC(C)Oc1ccccc1-c1nc(SCC(=O)O)n[nH]1", "activity change (PNC), negative = inhibition": "inconclusive: -63.2%"}, {"smiles": "CCc1nnc(NS(=O)(=O)c2ccc(N=Cc3c(C)[nH]n(-c4cccc(Cl)c4)c3=O)cc2)s1", "activity change (PNC), negative = inhibition": "inconclusive: -58.8%"}, {"smiles": "COc1ccc(C2NC(=S)N(c3ccccc3)C(C)=C2C(=O)Nc2ccccc2)cc1", "note": "(stereo not given)", "activity change (PNC), negative = inhibition": "inactive: -13.3%"}, {"smiles": "CCCCn1c(CNC(=O)c2cccs2)nc2ccccc21", "activity change (PNC), negative = inhibition": "inconclusive: -37%"}, {"smiles": "COc1ccc(NC(=O)C2CC(=O)N(Cc3ccc(C)cc3)C2)cc1S(=O)(=O)N1CCCCC1", "note": "(stereo not given)", "activity change (PNC), negative = inhibition": "inconclusive: -43.6%"}, {"smiles": "Oc1ccc(-c2nccc(-c3cccs3)n2)cc1", "activity change (PNC), negative = inhibition": "inconclusive: -47.1%"}, {"smiles": "O=C(Nc1ccccc1C(=O)N/N=C/c1ccc(F)cc1)c1ccccc1Br", "activity change (PNC), negative = inhibition": "active: -114%"}, {"smiles": "Cn1c(C(=O)N2CCCC(C(=O)NCCCSC3CCCCC3)C2)cc2sccc21", "note": "(stereo not given)", "activity change (PNC), negative = inhibition": "inconclusive: -49.8%"}, {"smiles": "O=S(=O)(c1ccc(Cl)c(NC(=S)N/N=C/c2ccc(O)cc2)c1)N1CCOCC1", "activity change (PNC), negative = inhibition": "inconclusive: -54.6%"}, {"smiles": "O=C(CN1C2=NCCCN2c2ccccc21)c1ccc(Cl)cc1Cl", "activity change (PNC), negative = inhibition": "inconclusive: -41.4%"}, {"smiles": "O=C(c1cccc(F)c1)N1C2C=CC(C2)C1(C(F)(F)F)C(F)(F)F", "note": "(stereo not given)", "activity change (PNC), negative = inhibition": "inconclusive: -42%"}, {"smiles": "CN(C)CCCNCCCNC(=O)/C(=N\\O)c1ccccn1", "activity change (PNC), negative = inhibition": "inconclusive: -75.3%"}, {"smiles": "COc1ccc(C2C(C(=O)Nc3ccccc3OC)=C(C)Nc3nnnn32)c(OC)c1", "note": "(stereo not given)", "activity change (PNC), negative = inhibition": "inconclusive: -45%"}, {"smiles": "CC(=O)N1CCN(C(=O)Nc2cccc(C(F)(F)F)c2)CC1", "activity change (PNC), negative = inhibition": "inconclusive: -39.4%"}, {"smiles": "CC(C)[N+](C)(CCOC(=O)C1c2ccccc2Oc2ccccc21)C(C)C", "activity change (PNC), negative = inhibition": "inconclusive: -65.2%"}, {"smiles": "CC(C)(C)NS(=O)(=O)c1cnc(Cl)c(Cl)c1", "activity change (PNC), negative = inhibition": "inactive: 55.3%"}, {"smiles": "O=C(CC(Nc1ccc(F)cc1)C(=O)O)c1ccccc1", "note": "(stereo not given)", "activity change (PNC), negative = inhibition": "inconclusive: -65.5%"}, {"smiles": "CCC(C)c1ccc2oc(-c3ccc(NC(=O)Cn4cnc5c(=O)n(C)c(=O)n(C)c54)cc3)nc2c1", "note": "(stereo not given)", "activity change (PNC), negative = inhibition": "inconclusive: -65.7%"}, {"smiles": "O=C(NC1CC1)c1ccc2c(c1)ncn2C1CCCC1", "activity change (PNC), negative = inhibition": "inconclusive: -42.8%"}, {"smiles": "Cc1sc2ncnc(SC(C)C(=O)N3c4ccccc4Sc4ccccc43)c2c1C", "note": "(stereo not given)", "activity change (PNC), negative = inhibition": "inconclusive: -31.7%"}, {"smiles": "Cc1cc2n(n1)SC(Nc1cc(Cl)ccc1Cl)N2", "note": "(stereo not given)", "activity change (PNC), negative = inhibition": "active: -100%"}, {"smiles": "Cc1c(C#N)c2ccccc2n1CC(=O)NCC1CCCO1", "note": "(stereo not given)", "activity change (PNC), negative = inhibition": "inactive: -23.6%"}, {"smiles": "O=C(N/N=C/c1cccnc1)c1ccc2c(c1)OCCO2", "activity change (PNC), negative = inhibition": "inactive: -21.9%"}, {"smiles": "CCSc1sccc1C1C(C#N)=C(N)N(c2cccnc2)C2=C1C(=O)CCC2", "note": "(stereo not given)", "activity change (PNC), negative = inhibition": "inconclusive: -53.5%"}, {"smiles": "Cc1cccc(C(=O)Nc2ccc(C(=O)/C=C/c3cccs3)cc2)c1", "activity change (PNC), negative = inhibition": "inconclusive: -34.2%"}, {"smiles": "CNc1nc(-c2ccccn2)nnc1-c1ccccc1", "activity change (PNC), negative = inhibition": "inactive: 17.1%"}, {"smiles": "CCOC(=O)/C(C#N)=C1/C=CN(c2ccc(C)cc2)C=N1", "activity change (PNC), negative = inhibition": "inactive: 29.3%"}, {"smiles": "CCSCCOC(=O)C1=C(C)NC(=O)NC1c1ccc2c(c1)OCO2", "note": "(stereo not given)", "activity change (PNC), negative = inhibition": "inactive: 7.42%"}, {"smiles": "COc1ccccc1NC(=O)N(Cc1ccco1)Cc1cc2ccc(C)c(C)c2[nH]c1=O", "activity change (PNC), negative = inhibition": "inconclusive: -40.6%"}, {"smiles": "CC1(c2ccccc2)CC(C)(C)N(C(=O)c2cc([N+](=O)[O-])cc([N+](=O)[O-])c2)c2ccccc21", "note": "(stereo not given)", "activity change (PNC), negative = inhibition": "inconclusive: -59.7%"}, {"smiles": "COC(=O)c1c(NC(=O)c2ccc(N(C)S(=O)(=O)c3ccc(C)cc3)cc2)sc2c1CCCC2", "activity change (PNC), negative = inhibition": "inactive: -28.1%"}, {"smiles": "N#Cc1ccc(NC(=O)COC(=O)CCc2ccc(S(=O)(=O)N3CCCCC3)cc2)cc1", "activity change (PNC), negative = inhibition": "inconclusive: -50.2%"}, {"smiles": "Cc1ccc(CNC(=O)c2ccc(N3CCCC3=O)cc2)cc1", "activity change (PNC), negative = inhibition": "inactive: 22.6%"}, {"smiles": "C/C(CC(=O)NCc1ccco1)=N\\NC(=O)COc1ccc(C)cc1", "activity change (PNC), negative = inhibition": "inactive: 13.7%"}, {"smiles": "CC(=O)NCC(=O)OC(C(=O)c1ccccc1)c1ccc(Cl)cc1", "note": "(stereo not given)", "activity change (PNC), negative = inhibition": "inconclusive: -42.5%"}, {"smiles": "CCn1c(SCC(=O)N2CCN(c3cccc(Cl)c3)CC2)nc2ccccc2c1=O", "activity change (PNC), negative = inhibition": "inconclusive: -56.4%"}, {"smiles": "O=C(CSc1nnc(CNC(=O)c2c(F)cccc2Cl)o1)NCc1ccc2c(c1)OCO2", "activity change (PNC), negative = inhibition": "inactive: 18.1%"}, {"smiles": "CCOc1ccc(S(=O)(=O)N/N=C2/CCCC(=O)C2)cc1", "activity change (PNC), negative = inhibition": "inconclusive: -48.5%"}, {"smiles": "O=C(C1CC(c2ccc(F)cc2)=NO1)N1CCN(c2ccccc2)CC1", "note": "(stereo not given)", "activity change (PNC), negative = inhibition": "inactive: 25.3%"}, {"smiles": "O=[N+]([O-])c1ccc(N2CCCC2)cc1NC1CC1", "activity change (PNC), negative = inhibition": "inconclusive: -73.3%"}, {"smiles": "CCc1nc(SCc2ccc([N+](=O)[O-])cc2)n[nH]1", "activity change (PNC), negative = inhibition": "inconclusive: -35.4%"}, {"smiles": "COCCn1nnnc1C(c1cccs1)N1CCN(c2cc(C)ccc2C)CC1", "note": "(stereo not given)", "activity change (PNC), negative = inhibition": "inconclusive: -41.6%"}, {"smiles": "Cn1c(C(=O)N2CCc3ccccc3C2)cc2oc3ccccc3c21", "activity change (PNC), negative = inhibition": "active: -119%"}, {"smiles": "CCOC(=O)c1cc(C)n(-n2cnnc2)c1C", "activity change (PNC), negative = inhibition": "inactive: -12.8%"}, {"smiles": "Cc1ccc(NC(=S)N/N=C/c2ccc([N+](=O)[O-])s2)cc1", "activity change (PNC), negative = inhibition": "inactive: 35.4%"}, {"smiles": "CCOc1ccccc1-n1c(SCC(N)=O)nnc1-c1cccnc1", "activity change (PNC), negative = inhibition": "inactive: -23.4%"}, {"smiles": "COc1cc(/C=N/OCC(=O)Nc2cc(C)on2)ccc1OCc1ccccc1", "activity change (PNC), negative = inhibition": "inactive: 36.4%"}, {"smiles": "COc1ccccc1NC(=O)COC(=O)[C@@H]1CCCN1C(=O)c1cccs1", "activity change (PNC), negative = inhibition": "inconclusive: -31.5%"}, {"smiles": "O=C(CN(C1CC1)S(=O)(=O)c1ccc(S(=O)(=O)N2CCCCCC2)cc1)Nc1ccccc1", "activity change (PNC), negative = inhibition": "inconclusive: -44.9%"}, {"smiles": "CCn1cc(C(=O)NCCCOC)c(=O)c2cc(S(=O)(=O)N(C)C3CCCCC3)ccc21", "activity change (PNC), negative = inhibition": "inconclusive: -63.4%"}, {"smiles": "COc1ccc(N2CCN(CCNC(=O)Nc3ccc(Cl)cc3)CC2)cc1", "activity change (PNC), negative = inhibition": "inconclusive: -59.5%"}, {"smiles": "CCOc1ccc(C(=O)Nc2ccc(NC(=S)NC(=O)CC)cc2)cc1Cl", "activity change (PNC), negative = inhibition": "inconclusive: -46.4%"}, {"smiles": "COc1ccc2cc3c(N)nn(C(=O)c4ccc(Cl)c([N+](=O)[O-])c4)c3nc2c1", "activity change (PNC), negative = inhibition": "inconclusive: -33.4%"}, {"smiles": "Cc1ccccc1CN1CCN(C(=O)c2cccc(F)c2)CC1", "activity change (PNC), negative = inhibition": "inconclusive: -33%"}]}]}
